According to publication PMC8603942:
No constants are given. Whether binding was seen depends on the method and setting. Binding seen in cells or lysates may run through a third protein.

The chains behind the UniProt entries cited, without tags or fusion partners.
UniProt Q9QZL0: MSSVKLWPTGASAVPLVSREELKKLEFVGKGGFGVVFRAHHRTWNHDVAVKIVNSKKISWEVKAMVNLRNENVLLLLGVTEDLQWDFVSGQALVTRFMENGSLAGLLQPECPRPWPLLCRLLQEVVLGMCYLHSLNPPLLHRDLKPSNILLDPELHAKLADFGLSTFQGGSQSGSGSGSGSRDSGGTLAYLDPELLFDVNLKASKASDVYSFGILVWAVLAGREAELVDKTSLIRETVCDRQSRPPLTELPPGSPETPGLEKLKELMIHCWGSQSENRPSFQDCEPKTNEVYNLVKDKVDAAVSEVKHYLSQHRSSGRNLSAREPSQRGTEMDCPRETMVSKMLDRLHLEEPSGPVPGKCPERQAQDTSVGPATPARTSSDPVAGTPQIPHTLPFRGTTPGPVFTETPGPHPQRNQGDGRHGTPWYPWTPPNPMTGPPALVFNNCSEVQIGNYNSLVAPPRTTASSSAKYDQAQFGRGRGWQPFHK

T1: ASC (mouse (endogenous in BMDMs)) (UniProt Q9EPB4)
T1 sequence: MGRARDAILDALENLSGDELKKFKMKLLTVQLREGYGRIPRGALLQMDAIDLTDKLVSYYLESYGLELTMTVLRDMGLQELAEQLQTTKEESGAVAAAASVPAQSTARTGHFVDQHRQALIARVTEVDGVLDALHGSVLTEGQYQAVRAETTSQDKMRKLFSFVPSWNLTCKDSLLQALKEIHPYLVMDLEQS

B1: Pyrin (protein, UniProt Q9JJ26 1-767)
chain: MAKTLGDHLLNTLEELLPYDFEKFKFKLQNTSLEKGHSKIPRGHMQMARPVKLASLLITYYGEEYAVRLTLQILRATNQRQLAEELRKATGTEHLIEENRVGGSVQSSVENKAKSVKVPDVPEGDGTQQNNDESDTLPSSQAEVGKGPQKKSLTKRKDQRGPESLDSQTKPWTRSTAPLYRRTQGTQSPGDKESTASAQLRRNVSSAGRLQGLYNNAPGRRESKKAEVYVYLPSGKKRPRSLEITTYSREGEPPNSEVLPTQEETRNGSLIRMRTATLNGRTTGALEKGTGIPEHSMVLDEKTFRNMSSKTSLIGEERCPTSWTENGNGSPETTESSGETAGSILSDPEVPLSLCEKPAKTPEDPASLGQAACEGRSQDKAVCPLCHTQEGDLRGDTCVQSSCSCSIAPGDPKASGRCSICFQCQGLLARKSCEAQSPQSLPQCPRHMKQVLLLFCEDHREPICLICRLSLEHQGHRVRPIEEAALEYKEQIREQLERLREMRGYVEEHRLQGDKKTDDFLKQTEIQKQKISCPLEKLYQLLEKQEQLFVTWLQELSQTISKVRETYYTRVSLLDEMIEELEAKQDQPEWDLMQDIGITLHRAKMMSASELLDTPPGVKEKLHLLYQKSKSVEKNMQCFSEMLSSEMAFSASDVAKWEGRQPSATQVQGLVPTVHLKCDGAHTQDCDVVFYPEREAGGSEPKDYLHPQPAQDTPELHEIHSRNNKRKFKSFLKWKPSFSRTDWRLRTCCYRDLDQAAAHPNLIFSMI
B2: caspase-8 (protein, UniProt O89110 1-480)
chain: MDFQSCLYAIAEELGSEDLAALKFLCLDYIPHKKQETIEDAQKLFLRLREKGMLEEGNLSFLKELLFHISRWDLLVNFLDCNREEMVRELRDPDNAQISPYRVMLFKLSEEVSELELRSFKFLLNNEIPKCKLEDDLSLLEIFVEMEKRTMLAENNLETLKSICDQVNKSLLGKIEDYERSSTERRMSLEGREELPPSVLDEMSLKMAELCDSPREQDSESRTSDKVYQMKNKPRGYCLIINNHDFSKAREDITQLRKMKDRKGTDCDKEALSKTFKELHFEIVSYDDCTANEIHEILEGYQSADHKNKDCFICCILSHGDKGVVYGTDGKEASIYDLTSYFTGSKCPSLSGKPKIFFIQACQGSNFQKGVPDEAGFEQQNHTLEVDSSSHKNYIPDEADFLLGMATVKNCVSYRDPVNGTWYIQSLCQSLRERCPQGDDILSILTGVNYDVSNKDDRRNKGKQMPQPTFTLRKKLFFPP
B3: FADD (protein, UniProt Q61160 1-205)
chain: MDPFLVLLHSLSGSLSGNDLMELKFLCRERVSKRKLERVQSGLDLFTVLLEQNDLERGHTGLLRELLASLRRHDLLQRLDDFEAGTATAAPPGEADLQVAFDIVCDNVGRDWKRLARELKVSEAKMDGIEEKYPRSLSERVRESLKVWKNAEKKNASVAGLVKALRTCRLNLVADLVEEAQESVSKSENMSPVLRDSTVSSSETP

molecular target: T1, ASC (mouse (endogenous in BMDMs)); experiment: condition: only after poly(dA:dT) transfection instead of infection; co-IP; anti-ASC antibody with protein A/G agarose from lysates of WT BMDMs after poly(dA:dT) transfection instead of infection; 20 mM Tris-HCl pH 7.4, 100 mM NaCl, 30 mM KCl, 0.1% NP-40; immunoblot

binding, no binding:
RIPK3 (from UniProt Q9QZL0 1-486), B1, B2, B3
